This passage reports binding results from EP2045266A1, “Methods for treating and diagnosing a cancer secreting cath-D or Alzheimer's disease” (priority 2007, dated 2009).

Amino acid sequences for entries named in this document (tags omitted). A change or cut given only in a name is not applied to a line headed by its entry. Residues count along the entry.
UniProt Q07954: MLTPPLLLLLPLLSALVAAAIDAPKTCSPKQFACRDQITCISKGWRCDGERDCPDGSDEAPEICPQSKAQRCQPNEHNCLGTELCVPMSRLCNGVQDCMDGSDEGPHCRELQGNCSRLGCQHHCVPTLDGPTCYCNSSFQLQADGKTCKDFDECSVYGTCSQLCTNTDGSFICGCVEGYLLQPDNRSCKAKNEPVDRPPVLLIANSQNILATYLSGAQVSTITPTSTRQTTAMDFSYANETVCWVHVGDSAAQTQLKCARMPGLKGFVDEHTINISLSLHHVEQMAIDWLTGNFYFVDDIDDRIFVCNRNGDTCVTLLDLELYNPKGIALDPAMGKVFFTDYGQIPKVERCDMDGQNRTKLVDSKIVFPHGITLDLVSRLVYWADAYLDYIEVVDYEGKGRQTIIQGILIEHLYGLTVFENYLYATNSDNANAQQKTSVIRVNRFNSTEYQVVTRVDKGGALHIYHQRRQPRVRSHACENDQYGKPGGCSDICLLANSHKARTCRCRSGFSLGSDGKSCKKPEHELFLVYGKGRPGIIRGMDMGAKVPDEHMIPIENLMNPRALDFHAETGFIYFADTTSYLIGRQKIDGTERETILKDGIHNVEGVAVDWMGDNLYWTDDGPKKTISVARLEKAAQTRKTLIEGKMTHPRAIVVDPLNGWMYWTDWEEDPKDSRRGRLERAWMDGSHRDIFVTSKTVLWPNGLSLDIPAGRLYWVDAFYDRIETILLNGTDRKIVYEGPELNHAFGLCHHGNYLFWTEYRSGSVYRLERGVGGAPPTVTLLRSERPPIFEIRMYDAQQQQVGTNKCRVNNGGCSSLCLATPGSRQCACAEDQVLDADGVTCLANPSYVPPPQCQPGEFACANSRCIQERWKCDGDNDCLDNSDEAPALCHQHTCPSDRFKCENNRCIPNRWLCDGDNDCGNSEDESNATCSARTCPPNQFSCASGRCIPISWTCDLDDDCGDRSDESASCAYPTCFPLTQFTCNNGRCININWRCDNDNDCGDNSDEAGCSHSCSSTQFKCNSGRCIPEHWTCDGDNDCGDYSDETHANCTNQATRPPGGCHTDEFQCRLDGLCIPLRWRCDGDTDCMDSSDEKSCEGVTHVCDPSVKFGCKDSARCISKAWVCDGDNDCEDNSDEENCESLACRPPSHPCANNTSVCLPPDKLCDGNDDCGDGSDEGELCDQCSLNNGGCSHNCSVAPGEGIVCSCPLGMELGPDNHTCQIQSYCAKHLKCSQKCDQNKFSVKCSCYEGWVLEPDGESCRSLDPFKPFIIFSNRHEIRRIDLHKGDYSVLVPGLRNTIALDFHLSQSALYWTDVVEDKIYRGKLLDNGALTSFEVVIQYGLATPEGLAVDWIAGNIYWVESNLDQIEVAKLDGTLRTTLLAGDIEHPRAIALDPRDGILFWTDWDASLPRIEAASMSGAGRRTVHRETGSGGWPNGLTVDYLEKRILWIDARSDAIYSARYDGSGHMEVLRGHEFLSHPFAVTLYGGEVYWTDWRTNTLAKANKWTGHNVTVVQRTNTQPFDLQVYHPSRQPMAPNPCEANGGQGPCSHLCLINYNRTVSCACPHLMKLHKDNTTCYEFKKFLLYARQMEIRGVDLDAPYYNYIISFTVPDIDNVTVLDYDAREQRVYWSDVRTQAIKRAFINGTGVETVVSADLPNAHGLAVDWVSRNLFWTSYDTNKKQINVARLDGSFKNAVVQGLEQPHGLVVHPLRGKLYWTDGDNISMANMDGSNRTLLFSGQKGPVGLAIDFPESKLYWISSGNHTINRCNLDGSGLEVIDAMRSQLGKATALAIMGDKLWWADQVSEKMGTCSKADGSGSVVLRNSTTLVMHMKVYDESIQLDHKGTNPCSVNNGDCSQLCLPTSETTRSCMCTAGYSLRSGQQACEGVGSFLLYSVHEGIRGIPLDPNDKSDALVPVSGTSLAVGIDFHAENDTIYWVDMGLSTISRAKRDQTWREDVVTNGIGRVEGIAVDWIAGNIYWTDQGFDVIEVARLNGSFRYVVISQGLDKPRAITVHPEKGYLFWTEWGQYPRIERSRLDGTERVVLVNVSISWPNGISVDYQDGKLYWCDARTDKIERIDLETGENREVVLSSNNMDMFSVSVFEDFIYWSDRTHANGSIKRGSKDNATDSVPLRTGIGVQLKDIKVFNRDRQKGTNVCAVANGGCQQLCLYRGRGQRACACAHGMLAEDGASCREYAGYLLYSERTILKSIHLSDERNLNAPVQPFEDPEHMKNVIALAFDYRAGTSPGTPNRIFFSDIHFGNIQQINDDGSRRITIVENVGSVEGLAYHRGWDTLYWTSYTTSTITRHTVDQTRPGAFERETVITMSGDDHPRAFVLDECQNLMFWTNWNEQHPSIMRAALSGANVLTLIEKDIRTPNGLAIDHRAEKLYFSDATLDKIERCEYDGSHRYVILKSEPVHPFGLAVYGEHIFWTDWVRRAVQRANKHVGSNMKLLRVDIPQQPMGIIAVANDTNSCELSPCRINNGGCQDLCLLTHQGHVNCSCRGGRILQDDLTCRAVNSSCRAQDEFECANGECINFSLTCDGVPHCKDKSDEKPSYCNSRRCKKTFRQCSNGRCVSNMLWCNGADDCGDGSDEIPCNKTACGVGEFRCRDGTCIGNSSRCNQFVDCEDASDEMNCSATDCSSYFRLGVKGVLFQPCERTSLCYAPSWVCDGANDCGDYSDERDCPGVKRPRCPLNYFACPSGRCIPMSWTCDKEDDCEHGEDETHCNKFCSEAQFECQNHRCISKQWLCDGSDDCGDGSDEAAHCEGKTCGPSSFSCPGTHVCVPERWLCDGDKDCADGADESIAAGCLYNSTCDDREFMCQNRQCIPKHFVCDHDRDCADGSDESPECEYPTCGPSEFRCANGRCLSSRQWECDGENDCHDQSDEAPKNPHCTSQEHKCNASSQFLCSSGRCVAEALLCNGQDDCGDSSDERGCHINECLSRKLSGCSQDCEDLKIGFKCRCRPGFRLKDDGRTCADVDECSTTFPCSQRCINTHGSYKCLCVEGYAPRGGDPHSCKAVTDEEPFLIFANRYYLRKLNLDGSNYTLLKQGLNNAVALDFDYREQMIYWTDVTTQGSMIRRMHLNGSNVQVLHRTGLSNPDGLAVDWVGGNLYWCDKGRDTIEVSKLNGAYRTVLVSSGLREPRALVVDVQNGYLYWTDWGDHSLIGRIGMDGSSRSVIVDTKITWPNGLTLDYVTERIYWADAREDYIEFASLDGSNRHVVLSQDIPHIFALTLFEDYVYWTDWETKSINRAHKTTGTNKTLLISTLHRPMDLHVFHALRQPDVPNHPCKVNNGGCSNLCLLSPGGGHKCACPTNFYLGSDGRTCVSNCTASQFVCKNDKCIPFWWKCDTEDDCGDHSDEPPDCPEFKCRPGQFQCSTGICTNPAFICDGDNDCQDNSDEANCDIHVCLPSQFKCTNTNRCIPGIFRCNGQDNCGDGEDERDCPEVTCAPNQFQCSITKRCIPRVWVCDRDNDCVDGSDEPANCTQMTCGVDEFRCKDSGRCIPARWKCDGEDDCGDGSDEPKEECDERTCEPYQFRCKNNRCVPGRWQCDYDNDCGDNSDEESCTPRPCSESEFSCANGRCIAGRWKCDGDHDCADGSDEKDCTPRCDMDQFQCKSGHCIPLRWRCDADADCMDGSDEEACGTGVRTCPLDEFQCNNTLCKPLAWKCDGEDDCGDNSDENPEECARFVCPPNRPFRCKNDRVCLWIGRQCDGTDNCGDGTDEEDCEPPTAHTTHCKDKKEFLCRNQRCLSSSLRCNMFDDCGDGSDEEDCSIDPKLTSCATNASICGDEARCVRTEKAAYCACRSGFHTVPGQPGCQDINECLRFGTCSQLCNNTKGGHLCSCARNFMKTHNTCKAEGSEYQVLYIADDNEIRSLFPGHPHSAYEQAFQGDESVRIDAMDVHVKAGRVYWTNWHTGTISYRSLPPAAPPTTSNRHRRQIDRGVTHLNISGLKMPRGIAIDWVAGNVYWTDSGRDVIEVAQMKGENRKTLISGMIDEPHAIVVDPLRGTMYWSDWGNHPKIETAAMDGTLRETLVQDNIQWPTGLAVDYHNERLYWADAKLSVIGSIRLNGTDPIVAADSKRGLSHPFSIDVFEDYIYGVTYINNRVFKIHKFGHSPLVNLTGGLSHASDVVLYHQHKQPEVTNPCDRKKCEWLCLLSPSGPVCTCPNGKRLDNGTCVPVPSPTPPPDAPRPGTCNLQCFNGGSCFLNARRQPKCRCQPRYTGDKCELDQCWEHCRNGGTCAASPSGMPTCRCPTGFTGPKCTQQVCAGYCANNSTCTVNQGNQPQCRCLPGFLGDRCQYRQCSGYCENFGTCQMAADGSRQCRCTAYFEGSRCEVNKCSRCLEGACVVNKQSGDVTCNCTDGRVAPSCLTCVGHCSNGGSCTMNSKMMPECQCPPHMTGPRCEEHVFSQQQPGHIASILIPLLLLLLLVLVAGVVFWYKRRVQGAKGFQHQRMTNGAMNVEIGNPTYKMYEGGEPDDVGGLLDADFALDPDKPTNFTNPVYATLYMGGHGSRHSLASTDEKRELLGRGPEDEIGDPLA
UniProt P07339: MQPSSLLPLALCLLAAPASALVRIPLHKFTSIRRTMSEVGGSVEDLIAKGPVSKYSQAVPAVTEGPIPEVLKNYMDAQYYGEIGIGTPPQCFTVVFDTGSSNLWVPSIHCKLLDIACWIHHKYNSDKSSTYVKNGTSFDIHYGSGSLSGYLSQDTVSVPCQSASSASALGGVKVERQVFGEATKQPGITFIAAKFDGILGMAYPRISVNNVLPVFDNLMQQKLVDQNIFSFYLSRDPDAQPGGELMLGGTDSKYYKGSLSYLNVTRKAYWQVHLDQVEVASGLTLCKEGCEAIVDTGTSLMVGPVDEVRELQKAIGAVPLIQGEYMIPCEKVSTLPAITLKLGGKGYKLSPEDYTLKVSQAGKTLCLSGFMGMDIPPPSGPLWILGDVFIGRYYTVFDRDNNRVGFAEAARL
GST-cath-D/14K: residues 65-162 of P07339
UniProt P0A7C2: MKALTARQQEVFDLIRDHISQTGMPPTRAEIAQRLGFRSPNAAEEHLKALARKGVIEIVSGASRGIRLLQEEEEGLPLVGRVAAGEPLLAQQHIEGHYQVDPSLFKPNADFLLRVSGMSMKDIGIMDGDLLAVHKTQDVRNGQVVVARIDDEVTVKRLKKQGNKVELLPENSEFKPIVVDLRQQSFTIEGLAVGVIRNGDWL

Experiment [1] concerns the target B42 activation domain fusion of LRP1β (307-479) (yeast two-hybrid clone, pYESTrp2-LRP1β (307-479)) (human) (UniProt Q07954). Briefly: yeast two-hybrid, LexA bait against B42 prey.
The next experiment deals with GST-cath-D/34K (human) (UniProt P07339). Briefly: GST pull-down, 35S-labelled LRP1β (1-476) on GST-cath-D beads.
A further experiment concerns the target GST-cath-D/14K (human) (UniProt P07339). The experiment is described as above.
Another experiment concerns the target GST-cath-D/52K (human) (UniProt P07339). The experiment is described as above.
Experiment [2] deals with LRP1-IV-HA mini-receptor (UniProt Q07954). Briefly: co-immunoprecipitation from co-transfected COS cells, anti-LRP1β IP, anti-cath-D blot.
Experiment [3] has as its target Myc-LRP1β (Myc-tagged LRP1 β chain) (human) (UniProt Q07954). Put plainly: co-immunoprecipitation, as summed up in the discussion.
Experiment [4] has the same target. Briefly: co-immunoprecipitation from co-transfected COS cells (anti-LRP1β IP, anti-cath-D blot; reciprocal IP confirmed).
Experiment [5] deals with GST-LRP1β fragment F4 (349-394) (human) (UniProt Q07954). Put plainly: GST pull-down, 35S-labelled pro-cath-D on GST-LRP1β fragment beads.
The target in experiment [6] is LRP1-IV-HA mini-receptor (UniProt Q07954). Briefly: co-immunoprecipitation from co-transfected COS cells, anti-HA IP with anti-cath-D blot and anti-cath-D IP with anti-HA blot.
The target in experiment [7] is GST-LRP1β (307-479) (human) (UniProt Q07954). Put plainly: GST pull-down, 35S-labelled pro-cath-D on GST-fusion beads, autoradiography.
Experiment [8] addresses Myc-LRP1β (Myc-tagged LRP1 β chain) (human) (UniProt Q07954). Briefly: co-immunoprecipitation from co-transfected COS cells, longer gel exposure.
The target is the same in experiment [9]. Put plainly: co-immunoprecipitation from co-transfected COS cells.
Experiment [10] has as its target LRP1-IV-HA mini-receptor (UniProt Q07954). The experiment is described as above.

No constants are given. Whether binding was seen depends on the method and setting. For some of these results: In cells and extracts the contact can be indirect. Some binding calls cover weakened binding; strength is not graded here.

Regarding “LexA DNA-binding domain fusion of 34 kDa mature heavy chain of human cath-D (from UniProt P0A7C2 1-202; P07339 169-412)”, in [1], the binding entry is given as “binds”.

Consider “LexA DNA-binding domain fusion of 14 kDa mature light chain of human cath-D (from UniProt P0A7C2 1-202; P07339 65-162)”, for which the binding entry in [1] is “binds”.

Turning to “full-length extracellular domain of LRP1β (1-476) (from UniProt Q07954 3944-4419) (receptor)”, the binding entry in the experiment with GST-cath-D/34K (human), with GST-cath-D/14K (human) and with GST-cath-D/52K (human) was “binds” throughout.

Regarding “LexA DNA-binding domain fusion of 48 kDa intermediate of human cath-D (from UniProt P0A7C2 1-202; P07339 65-412)”, the binding entry in experiment [1] is on record as “binds”.

Take “pro-cath-D (52 kDa precursor of human cathepsin D) (from UniProt P07339 21-412) (enzyme)”: the binding entry (with LRP1-IV-HA mini-receptor [2]; in experiment [3]; in experiment [4]; in experiment [5]; in the experiment with LRP1-IV-HA mini-receptor [6]; in experiment [7]) was “binds” in each case.

Consider “48 kDa cath-D polypeptide (intermediate form, in COS cells) (from UniProt P07339 65-412) (enzyme)”, for which the binding entry in [8] was “binds”.

For the substance “cath-D (wild-type human cath-D expressed from a transfected vector) (from UniProt P07339 21-412) (enzyme)”, the binding result (in experiment [9]; with LRP1-IV-HA mini-receptor [10]) was “binds” in each case.

For “34 kDa cath-D polypeptide (mature heavy chain, in COS cells) (from UniProt P07339 169-412) (enzyme)”, the binding entry in experiment [8] is listed as “binds”.
